The record followed here is publication PMC11022886.

Protein sequences, listed by entry. Tags and fused reporters are not part of them.
UniProt Q9QUM9: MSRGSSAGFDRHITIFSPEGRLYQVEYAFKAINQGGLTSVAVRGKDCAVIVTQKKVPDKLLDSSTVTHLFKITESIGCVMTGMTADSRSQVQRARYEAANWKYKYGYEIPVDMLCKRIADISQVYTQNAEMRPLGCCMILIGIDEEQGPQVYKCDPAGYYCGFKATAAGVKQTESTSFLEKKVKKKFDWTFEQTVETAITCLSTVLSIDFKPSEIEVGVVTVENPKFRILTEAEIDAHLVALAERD
UniProt Q9R1P4: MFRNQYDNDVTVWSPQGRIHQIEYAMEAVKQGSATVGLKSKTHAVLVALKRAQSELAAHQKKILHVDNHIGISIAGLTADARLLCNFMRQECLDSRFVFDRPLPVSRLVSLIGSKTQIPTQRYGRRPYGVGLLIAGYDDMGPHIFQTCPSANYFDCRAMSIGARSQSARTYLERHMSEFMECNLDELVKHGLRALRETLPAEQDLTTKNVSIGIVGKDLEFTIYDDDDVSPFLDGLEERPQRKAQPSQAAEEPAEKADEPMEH
UniProt Q9Z2U1: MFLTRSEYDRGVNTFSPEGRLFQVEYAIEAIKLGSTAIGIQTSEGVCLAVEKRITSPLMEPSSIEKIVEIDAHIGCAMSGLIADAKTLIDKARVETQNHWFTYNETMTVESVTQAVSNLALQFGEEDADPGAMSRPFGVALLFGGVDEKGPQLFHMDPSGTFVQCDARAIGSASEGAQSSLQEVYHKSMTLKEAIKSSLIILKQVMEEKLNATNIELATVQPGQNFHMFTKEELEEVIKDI

The labels stand for the following.
B1: PSMD7 (19S subunit), endogenous (protein, UniProt P26516 1-321)
chain: MPELAVQKVVVHPLVLLSVVDHFNRIGKVGNQKRVVGVLLGSWQKKVLDVSNSFAVPFDEDDKDDSVWFLDHDYLENMYGMFKKVNARERIVGWYHTGPKLHKNDIAINELMKRYCPNSVLVIIDVKPKDLGLPTEAYISVEEVHDDGTPTSKTFEHVTSEIGAEEAEEVGVEHLLRDIKDTTVGTLSQRITNQVHGLKGLNSKLLDIRSYLEKVASGKLPINHQIIYQLQDVFNLLPDASLQEFVKAFYLKTNDQMVVVYLASLIRSVVALHNLINNKIANRDAEKKEGQEKEESKKERKDDKEKEKSDAAKKEEKKEKK
B2: PSMD12 (19S subunit), endogenous (protein, UniProt Q9D8W5 1-456)
chain: MADGGSERADGRIVKMEVDYSATVDQRLPECEKLAKEGRLQEVIETLLSLEKQTRTASDMVSTSRILVAVVKMCYEAKEWDLLNENIMLLSKRRSQLKQAVAKMVQQCCTYVEEITDLPVKLRLIDTLRMVTEGKIYVEIERARLTKTLATIKEQNGDVKEAASILQELQVETYGSMEKKERVEFILEQMRLCLAVKDYIRTQIISKKINTKFFQEENTENLKLKYYNLMIQLDQHEGSYLSICKHYRAIYDTPCIQAESDKWQQALKSVVLYVILAPFDNEQSDLVHRISSDKKLEEIPKYKDLLKLFTTMELMRWSTLVEDYGVELRKGSSETPATDVFSSTEEGEKRWKDLKSRVVEHNIRIMAKYYTRITMKRMAQLLDLSVDESEAFLSNLVVNKTIFAKVDRLAGVINFQRPKDPNNLLNDWSQKLNSLMSLVNKTTHLIAKEEMIHNLQ
B3: PSMD6 (19S subunit), endogenous (protein, UniProt Q99JI4 1-389)
chain: MPLENLEEEGLPKNPDLRIAQLRFLLSLPEHRGDAAVREELMAAVRENNMAPYYEALCKSLDWQMDVDLLSKMKKANEEELKRLDEELEDAEKNLGESEIRDAMMAKAEYLCQIGDKEGALTAFRKTYDKTVALGHRLDIVFYLLRIGLFYMDNDLITRNTEKAKSLIEEGGDWDRRNRLKVYQGLYCVAIRDFKQAAELFLDTVSTFTSYELMDYKTFVTYTVYVSMIALERPDLREKVIKGAEILEVLHSLPAVRQYLFSLYECRYSVFFQSLAIVEQEMKKDWLFAPHYRYYVREMRIHAYSQLLESYRSLTLGYMAEAFGVGVDFIDQELSRFIAAGRLHCKIDKVNEIVETNRPDSKNWQYQETIKKGDLLLNRVQKLSRVINM

Results are given in words; binding and its absence hold for the method and conditions named. Binding seen in cells or lysates may run through a third protein. These calls come from enrichment with a bait or labelling near it, and not all partners need be listed. Where a sequence is shown, tags or fusion partners need not be part of it.

The experiment deals with T1, endogenous 3x-FLAG tagged MIDN (midnolin) (mouse (endogenous in splenic B cells and splenocytes)) (UniProt Q3TPJ7).
T1 sequence: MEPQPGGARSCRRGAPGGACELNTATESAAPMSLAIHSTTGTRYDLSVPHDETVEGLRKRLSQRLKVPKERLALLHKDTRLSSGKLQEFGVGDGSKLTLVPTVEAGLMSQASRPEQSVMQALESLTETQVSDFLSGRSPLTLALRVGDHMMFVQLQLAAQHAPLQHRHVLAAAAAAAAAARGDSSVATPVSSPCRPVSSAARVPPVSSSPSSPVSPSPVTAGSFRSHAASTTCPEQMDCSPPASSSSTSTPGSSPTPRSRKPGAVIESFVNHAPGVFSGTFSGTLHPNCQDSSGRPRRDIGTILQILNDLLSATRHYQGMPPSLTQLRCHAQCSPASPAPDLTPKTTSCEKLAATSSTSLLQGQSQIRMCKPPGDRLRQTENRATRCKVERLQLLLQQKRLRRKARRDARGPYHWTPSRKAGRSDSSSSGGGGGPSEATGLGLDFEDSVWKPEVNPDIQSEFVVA
Kind of experiment: affinity purification with mass spectrometry; endogenous MIDN-3xFLAG precipitated with anti-FLAG M2 agarose beads (4 h, 4°C) from NP-40 lysates of splenic B cells or whole spleen of Midn^Flag/Flag mice, eluted with 3xFlag peptides, LC-MS/MS; WT mice without the tag as control; two experiments (B cells, spleen).
For the molecule “PSMA6 (20S subunit), endogenous (from UniProt Q9QUM9 1-246)”, the binding entry is recorded as “binds”.
“PSMA1 (20S subunit), endogenous (from UniProt Q9R1P4 1-263)”: the binding result is reported as “binds”.
In the case of “PSMA5 (20S subunit), endogenous (from UniProt Q9Z2U1 1-241)” it was “binds”; in that of B1, “binds”.
In the case of B2 it was “binds”; in that of B3, “binds”.
